Measurements published in PMC7842900.
These are yes or no findings as the source states them, for the method shown. In cells and extracts the contact can be indirect. Binding calls can cover weak binding; strength is not graded here. Tags and fused reporters may be left off the sequences shown.

T1: GST-HpaB_(111-160) (Xanthomonas campestris pv. campestris) (UniProt B0RX82)
T1 sequence: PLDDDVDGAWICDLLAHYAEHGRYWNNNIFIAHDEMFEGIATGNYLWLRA

B1: 6×His-AvrAC (protein, UniProt Q4UWF4 1-536)
chain: MDKNLNLWDMSTFIQQYGALTADHPTHTPEDSPQTVPSPRSSSAHSPEIQELRSLQETRPARLGARSQSRSSKHGLQQCSSSPSDESFRLHAELAAWCERVETKPSLLAKLGCCAAPPVVGDHREQRREAMERIMRCLDAGQAGTQLTLRDLNLSQLPPGLHRLAHLRDLDVADNVNLTRLPEDLSLCKHLERINADGCSIAALPSKIGALKNLSEISLAFNELRTLPDSIGQCSSLTTIVVPGCKINKLPASLANLTQLKKLDVAANIELSELSPHMNLDDVAVHSTQTRLGLMHRIFKAPTFDPETRQRLSYQASALRDRWAALSHHLSPQARARVDQMREGASTTLSSQDHKASTAWKTATEKVSSWAEEGAPITLDRIFKLNQLLLPEGDDDNDPIGGQLRKVGIQAAPSNTWTECRYPPPETLKDEMAKFSGWLEHSEQQAHARDALGHIEFAAQLHQRLVSLHPFDDANGRTARLAMDWALQRHGLPPAPPVGEASRLPASFLGGKRVSPEKVVLETLEGIATVMNQVHQ

How the values were obtained:
[1] = target: T1, GST-HpaB_(111-160) (Xanthomonas campestris pv. campestris); assay: pull-down; chaperone release assay: GST-fused HpaB derivatives immobilised on MagneGST particles, incubated with 6×His-tagged T3E to form the complex, unbound protein removed; then 1 h at room temperature with 150 μM ATP, with or without 1 μg purified 6×His-HrcN; supernatant and particles immunoblotted
[2] = target: GST-HpaB_(1-136) (Xanthomonas campestris pv. campestris); assay: as above

Molecule | binding [1] | binding [2]
6×His-XC3176 (Xanthomonas campestris pv. campestris) | binds | –
B1 | – | binds
